Where a name gives a salt, the structure may show the parent alone. The list shows a part of the results. The calls rarely recur for the same compound in another form.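 Kinases were expressed as nanoluciferase fusions in K562 cells and luminescence was read every 4 h between 2 and 18 h as percent of control, DMSO set to 100% and a positive control to 0%. A time point counts as decreased when the signal drops significantly (2 sigma). The hit call is the authors' own, does not follow from the count of time points alone, and its rule is not shown.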
What was measured:
Experiment in all cases: kinase-Nluc reporter destabilization hit call (1 = scored as downregulated) (binary); higher = compound decreases kinase abundance
Conditions in all cases: K562, 2-18 h
[1] = target: IRAK3 (UniProt Q9Y616)
[2] = target: JAK1 (UniProt P23458)
[3] = target: LCK (UniProt P06239)
[4] = target: LIMK1 (UniProt P53667)
[5] = target: LIMK2 (UniProt P53671)
[6] = target: LMTK2 (UniProt Q8IWU2)
[7] = target: LYN (UniProt P07948)
[8] = target: MAP2K1 (UniProt Q02750)
[9] = target: MAP2K2 (UniProt P36507)
[10] = target: MAP4K2 (UniProt Q12851)

The chains behind the UniProt entries cited, without tags or fusion partners. Where a name states a change or a piece, a line headed by the entry shows the natural chain unless it says otherwise.
UniProt Q9Y616: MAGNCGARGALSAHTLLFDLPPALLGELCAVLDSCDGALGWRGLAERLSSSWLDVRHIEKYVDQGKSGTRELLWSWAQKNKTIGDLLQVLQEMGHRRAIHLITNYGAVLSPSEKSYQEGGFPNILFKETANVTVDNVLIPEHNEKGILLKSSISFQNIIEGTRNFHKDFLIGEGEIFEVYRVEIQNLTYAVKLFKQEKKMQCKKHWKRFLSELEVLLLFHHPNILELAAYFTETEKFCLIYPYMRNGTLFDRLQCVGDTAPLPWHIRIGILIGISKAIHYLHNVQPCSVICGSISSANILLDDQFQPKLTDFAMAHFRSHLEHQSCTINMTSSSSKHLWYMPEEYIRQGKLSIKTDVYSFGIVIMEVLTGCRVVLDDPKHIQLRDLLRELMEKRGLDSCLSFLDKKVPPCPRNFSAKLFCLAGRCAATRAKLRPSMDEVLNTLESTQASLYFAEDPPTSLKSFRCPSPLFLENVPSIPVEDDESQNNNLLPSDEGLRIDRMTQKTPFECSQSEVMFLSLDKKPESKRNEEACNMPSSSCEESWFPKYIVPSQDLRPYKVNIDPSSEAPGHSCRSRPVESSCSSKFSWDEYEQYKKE
UniProt P23458: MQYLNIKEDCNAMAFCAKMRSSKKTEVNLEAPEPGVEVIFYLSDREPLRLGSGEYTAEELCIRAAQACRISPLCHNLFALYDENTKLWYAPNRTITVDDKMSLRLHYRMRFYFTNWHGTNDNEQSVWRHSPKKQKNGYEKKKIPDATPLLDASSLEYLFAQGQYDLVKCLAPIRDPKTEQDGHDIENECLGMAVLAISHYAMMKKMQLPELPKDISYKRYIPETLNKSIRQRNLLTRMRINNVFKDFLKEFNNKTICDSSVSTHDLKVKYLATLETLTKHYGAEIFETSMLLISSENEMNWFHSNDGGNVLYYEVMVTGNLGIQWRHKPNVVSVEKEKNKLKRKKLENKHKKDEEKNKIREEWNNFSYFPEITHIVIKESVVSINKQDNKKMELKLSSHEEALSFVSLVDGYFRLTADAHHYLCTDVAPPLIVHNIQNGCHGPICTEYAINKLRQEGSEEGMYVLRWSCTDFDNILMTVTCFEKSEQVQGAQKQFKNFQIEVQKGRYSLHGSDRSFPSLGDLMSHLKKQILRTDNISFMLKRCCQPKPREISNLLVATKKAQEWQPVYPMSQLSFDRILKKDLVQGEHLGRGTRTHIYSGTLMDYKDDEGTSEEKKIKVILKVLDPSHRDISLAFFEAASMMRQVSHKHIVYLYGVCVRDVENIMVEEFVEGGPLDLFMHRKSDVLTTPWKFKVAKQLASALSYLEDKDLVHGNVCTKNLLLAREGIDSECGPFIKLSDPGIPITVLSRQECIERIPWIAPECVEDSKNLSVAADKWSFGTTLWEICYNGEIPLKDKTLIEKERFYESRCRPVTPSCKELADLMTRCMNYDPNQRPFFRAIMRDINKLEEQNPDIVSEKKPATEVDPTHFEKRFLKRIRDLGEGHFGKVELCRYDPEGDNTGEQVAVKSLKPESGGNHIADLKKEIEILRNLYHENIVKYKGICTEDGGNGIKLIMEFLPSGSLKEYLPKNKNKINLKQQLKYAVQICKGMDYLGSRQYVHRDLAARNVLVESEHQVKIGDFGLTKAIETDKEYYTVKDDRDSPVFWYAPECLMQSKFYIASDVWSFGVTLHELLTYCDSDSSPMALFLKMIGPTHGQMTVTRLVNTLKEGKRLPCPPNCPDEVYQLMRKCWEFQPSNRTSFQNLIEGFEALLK
UniProt P06239: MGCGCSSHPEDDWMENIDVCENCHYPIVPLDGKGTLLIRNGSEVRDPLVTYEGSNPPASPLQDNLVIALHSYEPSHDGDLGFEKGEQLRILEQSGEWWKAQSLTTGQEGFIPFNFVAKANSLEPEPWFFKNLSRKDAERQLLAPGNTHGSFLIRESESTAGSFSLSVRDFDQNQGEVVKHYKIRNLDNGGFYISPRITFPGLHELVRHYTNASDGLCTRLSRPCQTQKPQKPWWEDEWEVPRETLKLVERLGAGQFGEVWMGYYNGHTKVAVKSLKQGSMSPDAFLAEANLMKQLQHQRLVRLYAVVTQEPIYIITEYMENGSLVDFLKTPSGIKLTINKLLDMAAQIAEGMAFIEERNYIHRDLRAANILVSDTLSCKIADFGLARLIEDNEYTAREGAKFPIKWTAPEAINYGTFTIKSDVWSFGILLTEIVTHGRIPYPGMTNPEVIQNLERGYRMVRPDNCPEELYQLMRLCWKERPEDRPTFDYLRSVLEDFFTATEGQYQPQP
UniProt P53667: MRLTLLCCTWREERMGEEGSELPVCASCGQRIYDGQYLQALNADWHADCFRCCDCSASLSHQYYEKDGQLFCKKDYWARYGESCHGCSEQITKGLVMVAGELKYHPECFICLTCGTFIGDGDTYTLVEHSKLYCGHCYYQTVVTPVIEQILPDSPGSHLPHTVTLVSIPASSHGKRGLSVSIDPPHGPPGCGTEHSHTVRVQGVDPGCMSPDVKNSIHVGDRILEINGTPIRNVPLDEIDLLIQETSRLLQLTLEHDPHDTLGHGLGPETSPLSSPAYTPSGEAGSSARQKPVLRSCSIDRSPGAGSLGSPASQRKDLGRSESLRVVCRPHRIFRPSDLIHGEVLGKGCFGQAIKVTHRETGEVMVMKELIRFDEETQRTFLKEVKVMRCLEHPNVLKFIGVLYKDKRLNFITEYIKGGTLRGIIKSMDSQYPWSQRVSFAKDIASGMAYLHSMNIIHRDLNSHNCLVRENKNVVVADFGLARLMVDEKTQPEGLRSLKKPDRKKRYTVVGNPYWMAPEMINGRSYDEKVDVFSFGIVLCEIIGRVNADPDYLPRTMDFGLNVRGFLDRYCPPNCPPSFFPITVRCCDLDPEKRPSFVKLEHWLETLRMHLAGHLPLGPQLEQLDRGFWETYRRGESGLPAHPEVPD
UniProt P53671: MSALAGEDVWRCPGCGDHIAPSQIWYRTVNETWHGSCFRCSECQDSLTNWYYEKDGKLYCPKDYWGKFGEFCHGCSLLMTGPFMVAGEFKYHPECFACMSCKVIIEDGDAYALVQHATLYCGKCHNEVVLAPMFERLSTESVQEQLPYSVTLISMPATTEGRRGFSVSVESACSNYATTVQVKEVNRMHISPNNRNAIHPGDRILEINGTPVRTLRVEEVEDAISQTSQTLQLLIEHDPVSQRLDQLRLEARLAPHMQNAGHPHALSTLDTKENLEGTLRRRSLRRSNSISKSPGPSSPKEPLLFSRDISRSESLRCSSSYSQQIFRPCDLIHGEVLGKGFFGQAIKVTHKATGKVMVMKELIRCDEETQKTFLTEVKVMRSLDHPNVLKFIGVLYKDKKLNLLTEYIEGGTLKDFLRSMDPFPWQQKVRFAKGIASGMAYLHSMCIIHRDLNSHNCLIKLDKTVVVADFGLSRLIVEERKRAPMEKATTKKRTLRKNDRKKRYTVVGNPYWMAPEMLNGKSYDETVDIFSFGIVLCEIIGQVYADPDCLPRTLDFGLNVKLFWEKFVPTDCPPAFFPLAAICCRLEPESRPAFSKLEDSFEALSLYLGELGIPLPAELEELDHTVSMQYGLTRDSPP
UniProt Q8IWU2: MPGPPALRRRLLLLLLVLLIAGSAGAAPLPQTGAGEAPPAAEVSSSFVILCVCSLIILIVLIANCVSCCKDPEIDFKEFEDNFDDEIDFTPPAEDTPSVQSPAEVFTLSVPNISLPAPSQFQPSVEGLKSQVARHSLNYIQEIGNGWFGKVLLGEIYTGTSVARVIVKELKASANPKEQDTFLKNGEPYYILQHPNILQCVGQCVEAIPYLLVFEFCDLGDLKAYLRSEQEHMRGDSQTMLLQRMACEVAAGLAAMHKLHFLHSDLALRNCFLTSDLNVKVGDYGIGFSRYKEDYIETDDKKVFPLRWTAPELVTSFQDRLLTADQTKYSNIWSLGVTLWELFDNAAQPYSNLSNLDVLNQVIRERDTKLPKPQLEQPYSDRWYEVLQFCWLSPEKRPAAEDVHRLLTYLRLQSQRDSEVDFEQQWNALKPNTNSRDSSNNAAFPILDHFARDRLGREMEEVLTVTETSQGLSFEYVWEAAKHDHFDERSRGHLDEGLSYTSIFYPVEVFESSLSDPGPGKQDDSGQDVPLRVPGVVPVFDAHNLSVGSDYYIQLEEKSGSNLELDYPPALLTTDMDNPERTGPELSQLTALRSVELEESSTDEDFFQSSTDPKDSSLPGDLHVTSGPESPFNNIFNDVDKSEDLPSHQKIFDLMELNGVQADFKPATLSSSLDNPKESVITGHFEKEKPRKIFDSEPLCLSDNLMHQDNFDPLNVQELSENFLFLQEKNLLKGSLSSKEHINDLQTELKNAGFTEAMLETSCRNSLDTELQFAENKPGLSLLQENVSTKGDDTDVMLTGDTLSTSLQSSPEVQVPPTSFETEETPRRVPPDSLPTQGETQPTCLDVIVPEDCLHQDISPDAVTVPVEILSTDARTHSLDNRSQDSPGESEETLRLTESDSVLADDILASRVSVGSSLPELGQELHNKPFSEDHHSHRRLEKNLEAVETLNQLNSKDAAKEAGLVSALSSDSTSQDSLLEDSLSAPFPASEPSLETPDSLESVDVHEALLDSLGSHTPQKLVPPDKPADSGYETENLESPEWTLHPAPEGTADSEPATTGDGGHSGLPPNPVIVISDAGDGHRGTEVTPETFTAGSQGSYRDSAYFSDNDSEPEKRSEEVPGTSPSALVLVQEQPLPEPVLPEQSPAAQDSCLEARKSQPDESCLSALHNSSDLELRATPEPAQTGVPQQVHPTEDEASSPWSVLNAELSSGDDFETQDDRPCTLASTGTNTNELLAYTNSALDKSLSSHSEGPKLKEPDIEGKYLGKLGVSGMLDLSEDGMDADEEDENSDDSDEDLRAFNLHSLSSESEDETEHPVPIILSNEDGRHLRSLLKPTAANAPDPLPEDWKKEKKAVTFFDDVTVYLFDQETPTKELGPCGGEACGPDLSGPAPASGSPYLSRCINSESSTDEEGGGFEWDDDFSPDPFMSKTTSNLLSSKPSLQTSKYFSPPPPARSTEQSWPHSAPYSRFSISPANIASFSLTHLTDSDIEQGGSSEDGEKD
UniProt P07948: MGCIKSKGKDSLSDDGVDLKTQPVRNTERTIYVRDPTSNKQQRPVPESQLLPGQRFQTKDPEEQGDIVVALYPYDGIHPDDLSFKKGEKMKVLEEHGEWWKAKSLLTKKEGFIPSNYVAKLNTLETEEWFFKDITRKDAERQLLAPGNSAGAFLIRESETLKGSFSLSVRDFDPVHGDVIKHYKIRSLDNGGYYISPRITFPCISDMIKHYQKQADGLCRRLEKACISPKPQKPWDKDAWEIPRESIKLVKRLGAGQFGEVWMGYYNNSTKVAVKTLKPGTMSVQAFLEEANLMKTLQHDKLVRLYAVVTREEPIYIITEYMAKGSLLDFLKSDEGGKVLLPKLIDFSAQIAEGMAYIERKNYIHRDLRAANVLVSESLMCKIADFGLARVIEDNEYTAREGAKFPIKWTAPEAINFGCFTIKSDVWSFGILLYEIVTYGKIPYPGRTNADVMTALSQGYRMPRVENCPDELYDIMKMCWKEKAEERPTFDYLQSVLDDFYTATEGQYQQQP
UniProt Q12851: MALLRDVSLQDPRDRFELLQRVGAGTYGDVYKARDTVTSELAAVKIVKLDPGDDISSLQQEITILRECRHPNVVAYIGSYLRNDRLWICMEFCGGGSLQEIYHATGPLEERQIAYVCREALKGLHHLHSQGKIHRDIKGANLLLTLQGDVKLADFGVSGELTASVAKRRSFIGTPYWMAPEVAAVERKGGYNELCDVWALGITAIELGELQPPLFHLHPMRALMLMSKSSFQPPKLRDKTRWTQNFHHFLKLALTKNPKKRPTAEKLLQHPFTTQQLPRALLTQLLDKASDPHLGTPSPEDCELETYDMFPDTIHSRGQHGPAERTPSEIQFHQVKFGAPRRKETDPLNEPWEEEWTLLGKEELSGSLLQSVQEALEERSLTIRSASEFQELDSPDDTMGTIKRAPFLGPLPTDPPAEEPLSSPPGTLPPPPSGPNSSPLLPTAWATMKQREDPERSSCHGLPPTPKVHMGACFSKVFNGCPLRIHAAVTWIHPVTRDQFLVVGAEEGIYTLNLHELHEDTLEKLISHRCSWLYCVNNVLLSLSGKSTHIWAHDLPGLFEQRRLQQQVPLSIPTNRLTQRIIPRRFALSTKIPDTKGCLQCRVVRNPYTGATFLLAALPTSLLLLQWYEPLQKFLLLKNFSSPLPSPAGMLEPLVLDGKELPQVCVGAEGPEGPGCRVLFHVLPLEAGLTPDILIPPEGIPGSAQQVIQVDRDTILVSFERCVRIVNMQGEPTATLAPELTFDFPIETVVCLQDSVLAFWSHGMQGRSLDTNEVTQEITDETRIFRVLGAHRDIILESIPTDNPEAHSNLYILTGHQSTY

Measured: kinase-Nluc reporter destabilization hit call

CCCCCCCCCCCCc1ccc(S(=O)(=O)Nc2nncs2)cc1
inactive: [1]; 10 µM 0 | [2]; 10 µM 0 | [3]; 10 µM 0 | [4]; 10 µM 0 | [5]; 10 µM 0 | [6]; 10 µM 0 | [7]; 10 µM 0 | [8]; 10 µM 0 | [9]; 10 µM 0 | [10]; 10 µM 0

COc1cc2ncnc(Nc3cccc(Br)c3)c2cc1OC
inactive: [1]; 10 µM 0 | [2]; 10 µM 0 | [3]; 10 µM 0 | [4]; 10 µM 0 | [5]; 10 µM 0 | [6]; 10 µM 0 | [7]; 10 µM 0 | [8]; 10 µM 0 | [9]; 10 µM 0 | [10]; 10 µM 0

CC(C)N(CCC(=O)c1ccc2ccccc2c1)Cc1ccccc1
inactive: [1]; 10 µM 0 | [2]; 10 µM 0 | [3]; 10 µM 0 | [4]; 10 µM 0 | [5]; 10 µM 0 | [6]; 10 µM 0 | [7]; 10 µM 0 | [8]; 10 µM 0 | [9]; 10 µM 0 | [10]; 10 µM 0

Cc1ccc(-n2nc(C(C)(C)C)cc2NC(=O)Nc2ccc(OCCN3CCOCC3)c3ccccc23)cc1 [Doramapimod]
inactive: [1]; 10 µM 0 | [2]; 10 µM 0 | [3]; 10 µM 0 | [4]; 10 µM 0 | [5]; 10 µM 0 | [6]; 10 µM 0 | [7]; 10 µM 0 | [8]; 10 µM 0 | [9]; 10 µM 0 | [10]; 10 µM 0

CC(C)n1nc(-c2cc3cc(O)ccc3[nH]2)c2c(N)ncnc21 [Torkinib]
inactive: [1]; 2.5 µM 0 | [2]; 2.5 µM 0 | [3]; 2.5 µM 0 | [4]; 2.5 µM 0 | [5]; 2.5 µM 0 | [6]; 2.5 µM 0 | [7]; 2.5 µM 0 | [8]; 2.5 µM 0 | [9]; 2.5 µM 0 | [10]; 2.5 µM 0

CN1CCN(c2nc(C3=C(c4c[nH]c5ccccc45)C(=O)NC3=O)c3ccccc3n2)CC1 [Sotrastaurin]
inactive: [1]; 2.5 µM 0 | [2]; 2.5 µM 0 | [3]; 2.5 µM 0 | [4]; 2.5 µM 0 | [5]; 2.5 µM 0 | [6]; 2.5 µM 0 | [7]; 2.5 µM 0 | [8]; 2.5 µM 0 | [9]; 2.5 µM 0 | [10]; 2.5 µM 0

NC(=O)c1c(OCc2c(F)cc(Br)cc2F)nsc1NC(=O)NCCCCN1CCCC1
inactive: [1]; 2.5 µM 0 | [2]; 2.5 µM 0 | [3]; 2.5 µM 0 | [4]; 2.5 µM 0 | [5]; 2.5 µM 0 | [6]; 2.5 µM 0 | [7]; 2.5 µM 0 | [8]; 2.5 µM 0 | [9]; 2.5 µM 0 | [10]; 2.5 µM 0

Cc1cnc(Nc2ccc(OCCN3CCCC3)cc2)nc1Nc1cccc(S(=O)(=O)NC(C)(C)C)c1 [Fedratinib]
inactive: [1]; 2.5 µM 0 | [2]; 2.5 µM 0 | [3]; 2.5 µM 0 | [4]; 2.5 µM 0 | [5]; 2.5 µM 0 | [6]; 2.5 µM 0 | [7]; 2.5 µM 0 | [8]; 2.5 µM 0 | [9]; 2.5 µM 0 | [10]; 2.5 µM 0

CC#CC(=O)N1CCC[C@H]1c1nc(-c2ccc(C(=O)Nc3ccccn3)cc2)c2c(N)nccn12 [Acalabrutinib]
inactive: [1]; 10 µM 0 | [2]; 10 µM 0 | [3]; 10 µM 0 | [4]; 10 µM 0 | [5]; 10 µM 0 | [6]; 10 µM 0 | [7]; 10 µM 0 | [8]; 10 µM 0 | [9]; 10 µM 0 | [10]; 10 µM 0

C[C@@H]1O[C@@H](Oc2c(-c3ccc(O)c(O)c3)oc3cc(O)cc(O)c3c2=O)[C@H](O)[C@H](O)[C@H]1O [Quercitrin]
inactive: [1]; 10 µM 0 | [2]; 10 µM 0 | [3]; 10 µM 0 | [4]; 10 µM 0 | [5]; 10 µM 0 | [6]; 10 µM 0 | [7]; 10 µM 0 | [8]; 10 µM 0 | [9]; 10 µM 0 | [10]; 10 µM 0

COc1ccc(-c2cc3nccn3c(Nc3ncccc3C(N)=O)n2)cc1OC [BAY 61-3606 (dihydrochloride)]
inactive: [1]; 2.5 µM 0 | [2]; 2.5 µM 0 | [3]; 2.5 µM 0 | [4]; 2.5 µM 0 | [5]; 2.5 µM 0 | [6]; 2.5 µM 0 | [7]; 2.5 µM 0 | [8]; 2.5 µM 0 | [9]; 2.5 µM 0 | [10]; 2.5 µM 0

O=C(O)c1ccc(Nc2ncc3c(n2)-c2ccc(Cl)cc2C(c2c(F)cccc2F)=NC3)cc1
inactive: [1]; 10 µM 0 | [2]; 10 µM 0 | [3]; 10 µM 0 | [4]; 10 µM 0 | [5]; 10 µM 0 | [6]; 10 µM 0 | [7]; 10 µM 0 | [8]; 10 µM 0 | [9]; 10 µM 0 | [10]; 10 µM 0

O=c1ncn2nc(Sc3ccc(F)cc3F)ccc2c1-c1c(Cl)cccc1Cl [Neflamapimod]
inactive: [1]; 10 µM 0 | [2]; 10 µM 0 | [3]; 10 µM 0 | [4]; 10 µM 0 | [5]; 10 µM 0 | [6]; 10 µM 0 | [7]; 10 µM 0 | [8]; 10 µM 0 | [9]; 10 µM 0 | [10]; 10 µM 0

An excerpt from above in order of number of heavy atoms, rising.
COc1ccc(-c2cc3nccn3c(Nc3ncccc3C(N)=O)n2)cc1OC [BAY 61-3606 (dihydrochloride)]
inactive: [1]; 2.5 µM 0 | [2]; 2.5 µM 0 | [3]; 2.5 µM 0 | [4]; 2.5 µM 0 | [5]; 2.5 µM 0 | [6]; 2.5 µM 0 | [7]; 2.5 µM 0 | [8]; 2.5 µM 0 | [9]; 2.5 µM 0 | [10]; 2.5 µM 0

O=C(O)c1ccc(Nc2ncc3c(n2)-c2ccc(Cl)cc2C(c2c(F)cccc2F)=NC3)cc1
inactive: [1]; 10 µM 0 | [2]; 10 µM 0 | [3]; 10 µM 0 | [4]; 10 µM 0 | [5]; 10 µM 0 | [6]; 10 µM 0 | [7]; 10 µM 0 | [8]; 10 µM 0 | [9]; 10 µM 0 | [10]; 10 µM 0

CC#CC(=O)N1CCC[C@H]1c1nc(-c2ccc(C(=O)Nc3ccccn3)cc2)c2c(N)nccn12 [Acalabrutinib]
inactive: [1]; 10 µM 0 | [2]; 10 µM 0 | [3]; 10 µM 0 | [4]; 10 µM 0 | [5]; 10 µM 0 | [6]; 10 µM 0 | [7]; 10 µM 0 | [8]; 10 µM 0 | [9]; 10 µM 0 | [10]; 10 µM 0

Next records

CC[C@@H]1C(=O)N(C)c2cnc(Nc3ccc(C(=O)NC4CCN(C)CC4)cc3OC)nc2N1C1CCCC1
inactive: [1]; 10 µM 0 | [2]; 10 µM 0 | [3]; 10 µM 0 | [4]; 10 µM 0 | [5]; 10 µM 0 | [6]; 10 µM 0 | [7]; 10 µM 0 | [8]; 10 µM 0 | [9]; 10 µM 0 | [10]; 10 µM 0

NC1(C(=O)N[C@@H](CCO)c2ccc(Cl)cc2)CCN(c2nc[nH]c3nccc2-3)CC1 [Capivasertib]
inactive: [1]; 10 µM 0 | [2]; 10 µM 0 | [3]; 10 µM 0 | [4]; 10 µM 0 | [5]; 10 µM 0 | [6]; 10 µM 0 | [7]; 10 µM 0 | [8]; 10 µM 0 | [9]; 10 µM 0 | [10]; 10 µM 0

Source: the supplement of paper PMC12823440, “Inhibitors supercharge kinase turnover through native proteolytic circuits” (Nature, 2025)
